These are yes or no findings as the source states them, for the method shown. Binding seen in cells or lysates may run through a third protein. These calls come from enrichment with a bait or labelling near it, and not all partners need be listed. Where a sequence is shown, tags or fusion partners need not be part of it.

We go through ten molecules from paper PMC8889267.

The assay concerns the target T1, CLPC1-TRAP-STREPII (Arabidopsis thaliana) (UniProt Q9FI56).
T1 sequence: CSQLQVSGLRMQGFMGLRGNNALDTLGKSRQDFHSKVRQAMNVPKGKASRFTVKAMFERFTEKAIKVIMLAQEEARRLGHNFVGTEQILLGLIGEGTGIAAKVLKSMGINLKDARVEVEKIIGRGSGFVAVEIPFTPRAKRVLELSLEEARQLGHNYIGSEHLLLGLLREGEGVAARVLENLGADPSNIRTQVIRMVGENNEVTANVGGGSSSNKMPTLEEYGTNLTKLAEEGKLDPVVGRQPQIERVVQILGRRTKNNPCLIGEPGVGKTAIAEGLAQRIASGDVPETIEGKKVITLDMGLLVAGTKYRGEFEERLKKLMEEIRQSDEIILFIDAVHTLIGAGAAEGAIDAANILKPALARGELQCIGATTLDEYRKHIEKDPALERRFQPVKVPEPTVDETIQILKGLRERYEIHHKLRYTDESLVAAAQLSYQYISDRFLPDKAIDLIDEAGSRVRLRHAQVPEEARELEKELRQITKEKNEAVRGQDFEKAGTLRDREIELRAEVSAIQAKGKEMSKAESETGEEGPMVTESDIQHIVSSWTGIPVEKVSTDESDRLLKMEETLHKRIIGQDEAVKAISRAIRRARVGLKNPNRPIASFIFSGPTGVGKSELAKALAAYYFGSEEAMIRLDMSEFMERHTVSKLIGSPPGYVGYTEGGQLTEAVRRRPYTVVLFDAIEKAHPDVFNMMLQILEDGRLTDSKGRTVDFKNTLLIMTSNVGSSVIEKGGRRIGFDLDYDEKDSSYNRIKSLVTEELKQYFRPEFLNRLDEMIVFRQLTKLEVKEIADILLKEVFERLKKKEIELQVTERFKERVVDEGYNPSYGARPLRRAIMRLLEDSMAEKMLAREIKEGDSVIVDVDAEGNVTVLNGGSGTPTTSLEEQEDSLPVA
Briefly: affinity purification with mass spectrometry; STREPII-tagged CLPC1-WT or CLPC1-TRAP from soluble leaf proteome of transgenic Arabidopsis rosettes, nondenaturing; StrepTactinXT beads, 50 mM Hepes-KOH pH 8.0, 15% glycerol, 10 mM MgCl2, 75 mM NaCl, eluted with 2.5 mM biotin; SDS-PAGE, in-gel trypsin digest, LC-MS/MS, spectral counting; three biological replicates; CGEP-STREP eluates as negative control.

B1: pyruvate kinase-2 (typically homotetramer) (protein, UniProt Q9FLW9 64-579)
chain: SARVETEVIPVSPEDVPNREEQLERLLEMQQFGDTSVGMWSKPTVRRKTKIVCTVGPSTNTREMIWKLAEAGMNVARMNMSHGDHASHKKVIDLVKEYNAQTKDNTIAIMLDTKGPEVRSGDLPQPIMLDPGQEFTFTIERGVSTPSCVSVNYDDFVNDVEAGDMLLVDGGMMSFMVKSKTKDSVKCEVVDGGELKSRRHLNVRGKSATLPSITEKDWEDIKFGVENKVDFYAVSFVKDAQVVHELKKYLQNSGADIHVIVKIESADSIPNLHSIITASDGAMVARGDLGAELPIEEVPILQEEIINLCRSMGKAVIVATNMLESMIVHPTPTRAEVSDIAIAVREGADAVMLSGETAHGKFPLKAAGVMHTVALRTEATITSGEMPPNLGQAFKNHMSEMFAYHATMMSNTLGTSTVVFTRTGFMAILLSHYRPSGTIYAFTNEKKIQQRLALYQGVCPIYMEFTDDAEETFANALATLLKQGMVKKGEEIAIVQSGTQPIWRSQSTHNIQVRKV
Take B1: the binding result is “binds”.

B2: fibrillin 1b (FBN1b) (protein, UniProt O49629 60-310)
chain: ATDTGEIGSALLAAEEAIEDVEETERLKRSLVDSLYGTDRGLSASSETRAEIGDLITQLESKNPTPAPTEALFLLNGKWILAYTSFVNLFPLLSRGIVPLIKVDEISQTIDSDNFTVQNSVRFAGPLGTNSISTNAKFEIRSPKRVQIKFEQGVIGTPQLTDSIEIPEYVEVLGQKIDLNPIRGLLTSVQDTASSVARTISSQPPLKFSLPADNAQSWLLTTYLDKDIRISRGDGGSVFVLIKEGSPLLNP
Consider B2, for which the binding result is “binds”.

B3: zeaxanthin epoxidase (ZEP) (protein, UniProt Q9FGC7 60-667)
chain: AATALVEKEEKREAVTEKKKKSRVLVAGGGIGGLVFALAAKKKGFDVLVFEKDLSAIRGEGKYRGPIQIQSNALAALEAIDIEVAEQVMEAGCITGDRINGLVDGISGTWYVKFDTFTPAASRGLPVTRVISRMTLQQILARAVGEDVIRNESNVVDFEDSGDKVTVVLENGQRYEGDLLVGADGIWSKVRNNLFGRSEATYSGYTCYTGIADFIPADIESVGYRVFLGHKQYFVSSDVGGGKMQWYAFHEEPAGGADAPNGMKKRLFEIFDGWCDNVLDLLHATEEEAILRRDIYDRSPGFTWGKGRVTLLGDSIHAMQPNMGQGGCMAIEDSFQLALELDEAWKQSVETTTPVDVVSSLKRYEESRRLRVAIIHAMARMAAIMASTYKAYLGVGLGPLSFLTKFRVPHPGRVGGRFFVDIAMPSMLDWVLGGNSEKLQGRPPSCRLTDKADDRLREWFEDDDALERTIKGEWYLIPHGDDCCVSETLCLTKDEDQPCIVGSEPDQDFPGMRIVIPSSQVSKMHARVIYKDGAFFLMDLRSEHGTYVTDNEGRRYRATPNFPARFRSSDIIEFGSDKKAAFRVKVIRKTPKSTRKNESNNDKLLQTA
Take B3: the binding entry is reported as “binds”.

B4: fibrillin 1a (FBN1a) (protein, UniProt O81439 56-318)
chain: ATDIDDEWGQDGVERVFASSSTVSVADKAIESVEETERLKRSLADSLYGTDRGLSVSSDTRAEISELITQLESKNPTPAPNEALFLLNGKWILAYTSFVGLFPLLSRRIEPLVKVDEISQTIDSDSFTVQNSVRFAGPFSTTSFSTNAKFEIRSPKRVQIKFEQGVIGTPQLTDSIEIPESVEVLGQKIDLNPIKGLLTSVQDTASSVARTISNQPPLKFSLPSDNTQSWLLTTYLDKDLRISRGDGGSVYVLIKEGSSLLNP
In the case of B4, the binding result is “binds”.

B5: Mg-protoporphyrin IX chelatase - CHLI-2 (protein, UniProt Q5XF33 56-418)
chain: VMNVATEINSVEQAKKIDSKESARPVYPFAAIVGQDEMKLCLLLNVIDPKIGGVMIMGDRGTGKSTTVRSLVDLLPEITVVSGDPYNSDPRDPECMGKEVREKVQKGEELSVIETKINMVDLPLGATEDRVCGTIDIEKALTEGVKAFEPGLLAKANRGILYVDEVNLLDDHLVDVLLDSAASGWNTVEREGISISHPARFILIGSGNPEEGELRPQLLDRFGMHAQVGTVRDAELRVKIVEERARFDSNPKEFRETYQEEQLKLQEQITTARSNLSAVQIDQDLKVKISKVCAELDVDGLRGDMVINRAARALAALQGRDQVTAEDVGIVIPNCLRHRLRKDPLESMDSGILVTEKFYEVFT
On to B5, for which the binding entry was “binds”.

B6: 1-deoxy-D-xylulose 5-phosphate synthase (DXS1) (protein, UniProt Q38854 59-717)
chain: ASLAEKGEYYSNRPPTPLLDTINYPIHMKNLSVKELKQLSDELRSDVIFNVSKTGGHLGSSLGVVELTVALHYIFNTPQDKILWDVGHQSYPHKILTGRRGKMPTMRQTNGLSGFTKRGESEHDCFGTGHSSTTISAGLGMAVGRDLKGKNNNVVAVIGDGAMTAGQAYEAMNNAGYLDSDMIVILNDNKQVSLPTATLDGPSPPVGALSSALSRLQSNPALRELREVAKGMTKQIGGPMHQLAAKVDEYARGMISGTGSSLFEELGLYYIGPVDGHNIDDLVAILKEVKSTRTTGPVLIHVVTEKGRGYPYAERADDKYHGVVKFDPATGRQFKTTNKTQSYTTYFAEALVAEAEVDKDVVAIHAAMGGGTGLNLFQRRFPTRCFDVGIAEQHAVTFAAGLACEGLKPFCAIYSSFMQRAYDQVVHDVDLQKLPVRFAMDRAGLVGADGPTHCGAFDVTFMACLPNMIVMAPSDEADLFNMVATAVAIDDRPSCFRYPRGNGIGVALPPGNKGVPIEIGKGRILKEGERVALLGYGSAVQSCLGAAVMLEERGLNVTVADARFCKPLDRALIRSLAKSHEVLITVEEGSIGGFGSHVVQFLALDGLLDGKLKWRPMVLPDRYIDHGAPADQLAEAGLMPSHIAATALNLIGAPREALF
Take B6: the binding result is recorded as “binds”.

B7: 5′-adenylylsulfate reductase-1 (APR1) (protein, UniProt P92979 54-465)
chain: SSSVKPLNAEPKTKDSMIPLAATMVAEIAEEVEVVEIEDFEELAKKLENASPLEIMDKALEKYGNDIAIAFSGAEDVALIEYAHLTGRPFRVFSLDTGRLNPETYRFFDAVEKHYGIRIEYMFPDSVEVQGLVRSKGLFSFYEDGHQECCRVRKVRPLRRALKGLKAWITGQRKDQSPGTRSEIPVVQVDPVFEGLDGGVGSLVKWNPVANVEGNDVWNFLRTMDVPVNTLHAAGYISIGCEPCTKAVLPGQHEREGRWWWEDAKAKECGLHKGNVKENSDDAKVNGESKSAVADIFKSENLVTLSRQGIENLMKLENRKEPWIVVLYAPWCPFCQAMEASYDELADKLAGSGIKVAKFRADGDQKEFAKQELQLGSFPTILVFPKNSSRPIKYPSEKRDVESLTSFLNLVR
For the molecule B7, the binding result is reported as “binds”.

B8: glucose-6-phosphate dehydrogenase 2 (G6PD2) (protein, UniProt Q9FY99 60-596)
chain: VFMQDGAIVTNSNSSESKTSLKGLKDEVLSALSQEAAKVGVESDGQSQSTVSITVVGASGDLAKKKIFPALFALYYEGCLPEHFTIFGYSRSKMTDVELRNMVSKTLTCRIDKRANCGEKMEEFLKRCFYHSGQYDSQEHFTELDKKLKEHEAGRISNRLFYLSIPPNIFVDAVKCASTSASSVNGWTRVIVEKPFGRDSETSAALTKSLKQYLEEDQIFRIDHYLGKELVENLSVLRFSNLIFEPLWSRQYIRNVQFIFSEDFGTEGRGGYFDNYGIIRDIMQNHLLQILALFAMETPVSLDAEDIRNEKVKVLRSMRPIRVEDVVIGQYKSHTKGGVTYPAYTDDKTVPKGSLTPTFAAAALFIDNARWDGVPFLMKAGKALHTRSAEIRVQFRHVPGNLYNRNTGSDLDQATNELVIRVQPDEAIYLKINNKVPGLGMRLDRSNLNLLYSARYSKEIPDAYERLLLDAIEGERRLFIRSDELDAAWSLFTPLLKEIEEKKRIPEYYPYGSRGPVGAHYLAAKHKVQWGDVSIDQ
Consider B8, for which the binding entry is “binds”.

B9: 5′-adenylylsulfate reductase-3 (APR3) (protein, UniProt P92980 70-458)
chain: ASEVTEKLDVVEVEDFEELAKRLENASPLEIMDKALEKFGNDIAIAFSGAEDVALIEYAHLTGRPYRVFSLDTGRLNPETYRLFDTVEKHYGIRIEYMFPDAVEVQALVRNKGLFSFYEDGHQECCRIRKVRPLRRALKGLRAWITGQRKDQSPGTRSEIPVVQVDPVFEGLDGGVGSLVKWNPVANVEGNDVWNFLRTMDVPVNTLHAAGYVSIGCEPCTRAVLPGQHEREGRWWWEDAKAKECGLHKGNIKENTNGNATANVNGTASVADIFNSENVVNLSRQGIENLMKLENRKEAWIVVLYAPWCPFCQAMEASFDELADKLGGSGVKVAKFRADGDQKDFAKKELQLGSFPTILVFPKNSSRPIKYPSEKRDVDSLTSFLNLVR
As to B9, the binding result is given as “binds”.

B10: rpoC1 RNA polymerase (PEP) beta (protein, UniProt P56763 1-680)
chain: MIDRYKHQQLRIGLVSPQQISAWATKIIPNGEIVGEVTKPYTFHYKTNKPEKDGLFCERIFGPIKSGICACGNYRVIGDEKEDPKFCEQCGVEFVDSRIRRYQMGYIKLTCPVTHVWYLKRLPSYIANLLDKPLKELEGLVYCDFSFARPITKKPTFLRLRGSFEYEIQSWKYSIPLFFTTQGFDIFRNREISTGAGAIREQLADLDLRIIIENSLVEWKQLGEEGPTGNEWEDRKIVRRKDFLVRRMELAKHFIRTNIEPEWMVLCLLPVLPPELRPIIQIEGGKLMSSDINELYRRVIYRNNTLTDLLTTSRSTPGELVMCQEKLVQEAVDTLLDNGIRGQPMRDGHNKVYKSFSDVIEGKEGRFRETLLGKRVDYSGRSVIVVGPSLSLHRCGLPREIAIELFQTFVIRGLIRQHLASNIGVAKSQIREKKPIVWEILQEVMQGHPVLLNRAPTLHRLGIQSFQPILVEGRTICLHPLVCKGFNADFDGDQMAVHVPLSLEAQAEARLLMFSHMNLLSPAIGDPISVPTQDMLIGLYVLTSGTRRGICANRYNPCNRKNYQNERIYETNYKYTKEPFFCNSYDAIGAYRQKKINLDSPLWLRWQLDQRVIASREVPIEVHYESFGNYHEIYAHYLIVRSVKKENFCIYIRTTVGHISFYREIEEAIQGFSQACSYDT
On to B10, for which the binding entry is recorded as “binds”.
